In all, about 300,000 compounds went through this assay and about 5,400 (1.8%) were called active. Inconclusive results, whose numbers are uncertain, are shown with a selection of clear calls. Calls follow the shape of the full dose curve; tested in HEK293 cells. Where the call is inconclusive, the potency comes from a doubtful curve fit.
Assay: qHTS for inhibitors of binding or entry into cells for Marburg Virus
Settings: Marburg virus pseudotyped entry inhibition, cell reporter; activity change, negative = inhibition: at 37.8 µM (top of the series) unless noted
% is scaled to controls: 0 for no effect and ±100 for the full control effect; potency is read from the fitted curve at half-maximal effect.

SMILES | activity change, negative = inhibition | Potency
CCc1ccc(NS(=O)(=O)c2ccc3[nH]cc(C(=O)NCCCOC(C)C)c(=O)c3c2)cc1 | inactive: 14.5% [at 46.1 µM] | –
Cc1ccc(-c2nn(-c3ccccc3)cc2NC(=O)CCl)cc1 | – | inconclusive: 31.6 µM [inhibitor, single point]
CS(=O)(=O)NN1C(=O)c2ccccc2NC1c1cccc2cccnc12 (stereo unspecified) | – | inconclusive: 35.5 µM [activator, single point]
CCOC(=O)c1cnc(SCc2cccc3ccccc23)nc1N | inactive: 16.2% | –
COC(=O)C1CN(C(=O)c2ccc(OC(F)F)cc2)c2ccccc2O1 (stereo unspecified) | inactive: 6.56% [at 46.1 µM] | –
COCCNC(=S)N(CCc1c(C)[nH]c2ccc(Cl)cc12)Cc1cccs1 | – | inconclusive: 10 µM [inhibitor, partial curve, poor fit]
O=C(NCc1cccnc1)c1nn(-c2ccc(F)cc2)nc1CO | inactive: -14.5% [at 46.1 µM] | –
Nc1nc(-c2cc3c(cc2Cl)OCCO3)cs1 | inactive: 0.0878% | –
CN1C2CCC1/C(=C\c1ccccc1F)C(=O)/C2=C/c1ccccc1F | inactive: 1.5% | –
COc1ccc(Nc2cc(C(=O)NCCCN3CCOCC3)c3ccccc3n2)c(OC)c1 | – | inconclusive: 15.8 µM [inhibitor, partial curve, poor fit]
O=S(=O)(c1cc(F)ccc1F)N1CCN(C2CCCCC2)CC1 | – | inconclusive: 35.5 µM [activator, single point]
OC(CNCCC(c1ccccc1)c1ccccc1)COc1ccccc1 (stereo unspecified) | – | inconclusive: 35.5 µM [inhibitor, partial curve, poor fit]
Cc1ccc(C(C)C)c(OCC(O)CN2CCc3ccccc3C2)c1 (stereo unspecified) | – | inconclusive: 1.26 µM [inhibitor, partial curve, poor fit]
CC(OC(=O)CNC(=O)c1ccc(Cl)cc1)C(=O)NC1CCCCC1C (stereo unspecified) | inactive: 1.17% [at 46.1 µM] | –
O=C(COc1ccccc1)NCCSCc1ccc(Cl)cc1 | – | inconclusive: 1.58 µM [inhibitor, partial curve, poor fit]
O=C(Nc1ccc(N2CCOCC2)cc1)NC1CCCCC1 | – | inconclusive: 23.1 µM [activator, single point]
CSCCC(NC(=O)c1ccccc1)C(=O)NC1CC1 (stereo unspecified) | – | inconclusive: 29.1 µM [activator, partial curve, poor fit]
CCCn1c2ccccc2c2nnc(SCC(=O)Nc3cccc(C(C)=O)c3)nc21 | – | inconclusive: 35.5 µM [inhibitor, single point]
COc1ccc(S(=O)(=O)NC(CCSC)C(=O)NC2CCCCC2)cc1 (stereo unspecified) | inactive: -12.5% [at 46.1 µM] | –
O=C(NCCCc1ccccc1)[C@@H]1Cc2ccccc2CN1 | – | inconclusive: 22.4 µM [inhibitor, single point]
CCOC(=O)c1nnn2c1nc(N1CCN(C)CC1)c1ccccc12 | inactive: 4.89% | –
Cc1ccc(OC[C@H](O)CNS(=O)(=O)c2ccccc2C(=O)O)cc1 | inactive: 2.35% [at 46.1 µM] | –
Cc1ccc(C(=O)NCCNc2nc3cc(C)c(C)cc3cc2C)cc1 | – | inconclusive: 35.5 µM [inhibitor, single point]

For convenience, part of the list above.
SMILES | activity change, negative = inhibition | Potency
CN1C2CCC1/C(=C\c1ccccc1F)C(=O)/C2=C/c1ccccc1F | inactive: 1.5% | –
COc1ccc(Nc2cc(C(=O)NCCCN3CCOCC3)c3ccccc3n2)c(OC)c1 | – | inconclusive: 15.8 µM [inhibitor, partial curve, poor fit]
O=S(=O)(c1cc(F)ccc1F)N1CCN(C2CCCCC2)CC1 | – | inconclusive: 35.5 µM [activator, single point]
OC(CNCCC(c1ccccc1)c1ccccc1)COc1ccccc1 (stereo unspecified) | – | inconclusive: 35.5 µM [inhibitor, partial curve, poor fit]
Cc1ccc(C(C)C)c(OCC(O)CN2CCc3ccccc3C2)c1 (stereo unspecified) | – | inconclusive: 1.26 µM [inhibitor, partial curve, poor fit]
CC(OC(=O)CNC(=O)c1ccc(Cl)cc1)C(=O)NC1CCCCC1C (stereo unspecified) | inactive: 1.17% [at 46.1 µM] | –
O=C(COc1ccccc1)NCCSCc1ccc(Cl)cc1 | – | inconclusive: 1.58 µM [inhibitor, partial curve, poor fit]
O=C(Nc1ccc(N2CCOCC2)cc1)NC1CCCCC1 | – | inconclusive: 23.1 µM [activator, single point]
CSCCC(NC(=O)c1ccccc1)C(=O)NC1CC1 (stereo unspecified) | – | inconclusive: 29.1 µM [activator, partial curve, poor fit]
CCCn1c2ccccc2c2nnc(SCC(=O)Nc3cccc(C(C)=O)c3)nc21 | – | inconclusive: 35.5 µM [inhibitor, single point]
COc1ccc(S(=O)(=O)NC(CCSC)C(=O)NC2CCCCC2)cc1 (stereo unspecified) | inactive: -12.5% [at 46.1 µM] | –
O=C(NCCCc1ccccc1)[C@@H]1Cc2ccccc2CN1 | – | inconclusive: 22.4 µM [inhibitor, single point]

The list continues.

SMILES | activity change, negative = inhibition | Potency
O=c1cc(CN2CCN(S(=O)(=O)/C=C/c3ccccc3)CC2)c2ccc(O)cc2o1 | – | inconclusive: 17.8 µM [inhibitor, single point]
Cc1ccc(CNC(=O)CSc2ncc(C(=O)Nc3ccccc3)c(=O)n2C)cc1 | – | inconclusive: 5.62 µM [activator, single point]
CCOC(=O)c1c(-c2ccccc2)csc1NC(=O)CSc1ccccc1 | – | inconclusive: 1.12 µM [inhibitor, full curve, poor fit]
COc1cc(OC)c(OC)cc1CN1CCCC(C(=O)c2ccccc2SC)C1 (stereo unspecified) | – | inconclusive: 15.8 µM [inhibitor, partial curve, poor fit]
COc1ccc(CN(CC2CCCO2)C(=O)c2cc3sccc3n2C)c(OC)c1 (stereo unspecified) | – | inconclusive: 10 µM [inhibitor, single point]
COc1cccc(/C=N/NC(=O)c2ccc(N3CCCC3=O)cc2)c1 | – | inconclusive: 3.98 µM [inhibitor, full curve]
Cc1cc(C)n(-c2nc(NC(C)(C)C)nc(NC(C)(C)C)n2)n1 | – | inconclusive: 5.62 µM [inhibitor, single point]
CC1CCCN(S(=O)(=O)c2ccc3c(c2)CCN3C(=O)CCC(=O)O)C1 (stereo unspecified) | inactive: 13% [at 46.1 µM] | –
Cc1cccc(Cc2c(C)nc3c(-c4ccccc4)c(C)[nH]n3c2=O)c1 | – | inconclusive: 3.16 µM [inhibitor, partial curve, poor fit]
O=C(c1ccccc1)N1CCCCCC1 | – | inconclusive: 7.31 µM [inhibitor, single point]
C/C=C/c1ccc(OCCn2cncn2)c(OC)c1 | inactive: -0.899% [at 46.1 µM] | –
NC(=O)c1ccc(NC(=O)COC(=O)c2cc([N+](=O)[O-])ccc2N2CCOCC2)cc1 | – | inconclusive: 35.5 µM [inhibitor, single point]
CCn1c(COc2ccc(C)cc2)nnc1SCc1nc2ccccc2[nH]1 | – | inconclusive: 29.1 µM [inhibitor, single point]
CCCc1nc(NCc2ccccc2)c(C#N)c2c1CCCC2 | inactive: 3.6% | –
Cc1ccc(C)c(-n2c(=O)c(C#N)cc3c(=O)n4ccccc4nc32)c1 | inactive: 9.13% [at 46.1 µM] | –
COc1ccc(-c2nc(CSCC(=O)N3CCN(c4ccc(F)cc4)CC3)c(C)o2)cc1 | – | inconclusive: 6.31 µM [inhibitor, full curve, poor fit]
Cc1c(NC(=O)C2Cc3ccccc3CN2C(=O)c2ccco2)c(=O)n(-c2ccccc2)n1C (stereo unspecified) | – | inactive
COc1ccc(CN2CCN(c3ccc(F)cc3)CC2)c(OC)c1OC | – | inconclusive: 9.2 µM [inhibitor, partial curve, poor fit]
CCOC(=O)C1=C(C)Nc2nc(SCC)nn2C1c1ccc(OC)cc1 (stereo unspecified) | inactive: 7.62% | –
O=C(NNC1OC(CO)C(O)C(O)C1O)c1cccnc1 (stereo unspecified) | inactive: -1.62% [at 14.2 µM] | –
CCOc1ccc(N(CC(=O)OC)S(=O)(=O)c2ccc(OC)c(OC)c2)cc1 | inactive: -5.1% | –
Cc1ccc(S(=O)(=O)N2CCOCC2)cc1C(=O)NCCN1C(=O)S/C(=C\c2ccccc2Cl)C1=O | – | inconclusive: 15.8 µM [inhibitor, partial curve, poor fit]
COc1ccc(CCNCC(O)COc2cccc(Br)c2)cc1OC (stereo unspecified) | – | inconclusive: 10 µM [inhibitor, partial curve, poor fit]

Reference: PubChem BioAssay AID540276 (National Center for Advancing Translational Sciences (NCATS), 2011)
